Paper PMC9325753, “Chilling-induced phosphorylation of IPA1 by OsSAPK6 activates chilling tolerance responses in rice”
These are yes or no findings as the source states them, for the method shown. In cells and extracts the contact can be indirect. A result given as binding can be weak or reduced; the word gives no strength. Where a sequence is shown, tags or fusion partners need not be part of it.

Target: T1, OsSAPK6-CFP^N (rice (Oryza sativa L. subsp. japonica)) (UniProt Q6ZI44)
T1 sequence: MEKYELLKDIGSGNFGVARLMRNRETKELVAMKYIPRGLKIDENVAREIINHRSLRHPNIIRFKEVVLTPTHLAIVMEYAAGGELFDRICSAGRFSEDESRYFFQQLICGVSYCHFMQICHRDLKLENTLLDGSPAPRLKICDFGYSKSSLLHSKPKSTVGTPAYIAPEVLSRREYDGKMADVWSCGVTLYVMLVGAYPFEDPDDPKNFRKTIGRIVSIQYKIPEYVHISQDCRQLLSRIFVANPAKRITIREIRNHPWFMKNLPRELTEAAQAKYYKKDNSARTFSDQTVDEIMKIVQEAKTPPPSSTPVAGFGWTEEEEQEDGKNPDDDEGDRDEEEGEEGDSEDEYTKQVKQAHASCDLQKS
Experiment: split reporter; BiFC in rice leaf protoplasts; CFP^N and CFP^C fusions (puc-SCYNE, puc-SCYCE) co-expressed from 35S promoter, incubated in the dark overnight, confocal microscopy

| binding | Substance |
| --- | --- |
| binds | OsSPL2-CFP^C (rice) |
| binds | OsSPL7-CFP^C (rice) |
| binds | OsSPL8-CFP^C (rice) |

Continued, substance first:

| Substance | binding |
| --- | --- |
| OsSPL3-CFP^C (rice) | no binding |
| OsSPL6-CFP^C (rice) | no binding |
